According to paper PMC10682436:
No constants are given. Whether binding was seen depends on the method and setting. Binding seen in cells or lysates may run through a third protein. Here binding means that the protein was enriched with, or labelled near, the bait; the list need not be complete.

Target: FLAG-tagged OVOL2 stably expressed in EL4 T cells (mouse) (UniProt Q8CIV7)
Experiment: affinity purification with mass spectrometry; anti-FLAG M2 agarose IP (4 h, 4 °C) from EL4 T cells stably expressing FLAG-tagged OVOL2, with (20 or 100 unit) or without DNase I; washed five times in Nonidet P-40 lysis buffer; eluted with 3xFlag peptide; LC-MS/MS; three independent analyses; empty vector control

Row | binding | Substance
1 | binds | HDAC1, endogenous in EL4 T cells (from UniProt O09106 1-482)
2 | binds | HDAC2, endogenous in EL4 T cells (from UniProt P70288 1-488)
